Data: the supplement of paper PMC10338343
± gives the standard deviation. The list shows a part of the results, in another mix than the full data. The uncertainty is large for many entries. This is one part of the list.

What was measured:
[1] = test system: MILI (PIWIL2) piRISC loaded with L1MC piRNA (26 nt); experiment: pre-steady-state target cleavage rate (min^-1); higher = faster piRNA-guided slicing of the target; details: guide: L1MC piRNA 5'p-UAACUAAAUACUAUGCAAGCUGUAGG
Method in brief: (§1)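 Active affinity-purified piRISC (1 nM) loaded with one synthetic guide was mixed with a transcribed, DNA-blocked target RNA library (0.1 nM), with or without 500 nM GTSF1 partner protein, in HEPES–potassium acetate buffer at 33 °C for 0–8 or 0–960 min. Uncleaved targets were sequenced, normalised to depth and to weakly complementary targets, and pooled across three trials, with k3 capped at 0.0001 min^-1. The pre-steady-state cleavage rate was determined with a burst-and-steady-state fit.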

[2] = test system: MIWI (PIWIL1) piRISC loaded with L1MC piRNA (30 nt); experiment: as above; details: guide: L1MC piRNA 5'p-UAACUAAAUACUAUGCAAGCUGUAGGUCCU; auxiliary factor: none (no GTSF1)
Method in brief: as §1

[3] = test system: EfPiwi piRISC loaded with L1MC piRNA (26 nt); experiment: pre-steady-state target cleavage rate (min^-1); guide: L1MC piRNA 5'p-UAACUAAAUACUAUGCAAGCUGUAGG; MIWI and MILI are mouse PIWI proteins and EfPiwi is from a freshwater sponge; tags in brackets are library labels; higher = faster piRNA-guided slicing of the target
Method in brief: as §1

[4] = auxiliary factor: none (no GTSF1)
[5] = auxiliary factor: 500 nM Ephydatia muelleri Gtsf1
[6] = auxiliary factor: none (no Gtsf1)
[7] = auxiliary factor: 500 nM mouse GTSF1

Sequence | pre-steady-state target cleavage rate [1, 4] | pre-steady-state target cleavage rate [2] | pre-steady-state target cleavage rate [3, 5] | pre-steady-state target cleavage rate [3, 6] | pre-steady-state target cleavage rate [1, 7]
UCCUGGUACAGCUUGCUAAGUAUUUACAAA | 0.00089 ± 0.008 | 0.00139 ± 0.0056 | 0.000603 ± 0.0079 | 0.00043 ± 0.016 | 
UCCUGCUACAGCUUGCAAUCAUAAAUCAAA [g14:g25:cont:t1A] | 0.000277 ± 0.01 | 0.000314 ± 0.013 | 0.000448 ± 0.011 | < 0.0001 | 
UCCUGGUACAGCAAGCAUAGUAUUUUCAAA | 0.000867 ± 0.0097 | 0.000628 ± 0.015 | 0.00206 ± 0.0048 | 0.000143 ± 0.033 | 
UCCUGGUACAGCUUGCAUAGUAUAAUGAAA | 0.0015 ± 0.005 | 0.00235 ± 0.0038 | 0.00267 ± 0.0036 | 0.000114 ± 0.033 | 
UCCUGGAUGAGCUUGGUAAGUAUUUAGAAA | 0.000573 ± 0.012 | 0.000779 ± 0.011 | 0.000282 ± 0.023 | 0.000568 ± 0.012 | 
UCCUGCUACAGCUUGCAUUCUAUUUAGUAA | 0.00067 ± 0.0093 | 0.00206 ± 0.0024 | 0.000397 ± 0.011 | 0.000142 ± 0.039 | 
UCCUGGUACAGCUUGCAUAGUAUUAUGAAA | 0.00105 ± 0.0071 | 0.00231 ± 0.0037 | 0.00153 ± 0.0036 | 0.00026 ± 0.032 | 
UCCUGGAACAGCUUGCAUUCAAUUUACAAA | 0.000187 ± 0.014 | 0.000198 ± 0.018 | 0.000456 ± 0.0061 | 0.000383 ± 0.017 | 
UCCUGGAUGUCGAAGCAAUCUAUUUAGUUA | 0.000189 ± 0.02 | 0.000408 ± 0.011 | 0.00026 ± 0.012 | 0.000375 ± 0.017 | 
UCCUGGUAGAGCUUCCAUAGUAUUUAGUUA | 0.00191 ± 0.004 | 0.00122 ± 0.0045 | 0.00122 ± 0.006 | 0.000163 ± 0.046 | 
UCCUGGUACAGCUUGCAUUCAAUUUAGUAA | 0.00117 ± 0.007 | 0.000255 ± 0.0096 | 0.000448 ± 0.007 | 0.000418 ± 0.019 | 
UCCUGGAUGUCGAAGCAAAGAAUUUAGUUA | 0.00035 ± 0.012 | 0.000452 ± 0.012 | 0.000167 ± 0.021 | 0.000411 ± 0.014 | 
UCCUCCUACAGCUUCCAUAGUAAUUAGUUA | 0.000628 ± 0.0092 | 0.00125 ± 0.0046 | 0.00258 ± 0.0027 | 0.000322 ± 0.015 | 
UCCUGGAACAGCUUCCAUACUAUUUAGUUA | 0.000181 ± 0.032 | 0.000652 ± 0.011 | 0.00201 ± 0.0028 | 0.00021 ± 0.028 | 
UCCUGGAUGUCCAUGCUUAGUAUUUAGUUA | 0.00201 ± 0.0031 | 0.000767 ± 0.0074 | 0.000381 ± 0.0085 | 0.000161 ± 0.046 | 
UCCUGGAACUGCUUGCAUAGUAUUUUCAAA | 0.000827 ± 0.0061 | 0.00246 ± 0.0028 | 0.00125 ± 0.0029 | 0.000308 ± 0.016 | 

Sequence | pre-steady-state target cleavage rate [1, 4] | pre-steady-state target cleavage rate [2] | pre-steady-state target cleavage rate [3, 5] | pre-steady-state target cleavage rate [3, 6] | pre-steady-state target cleavage rate [1, 7]
UCCUGGUACAGCUAGCAUAGUAUUUACAAA | 0.0014 ± 0.0043 | 0.00162 ± 0.004 | 0.00133 ± 0.0032 | 0.000266 ± 0.029 | 
UCCUGGUACAGCAACCAUAGUAUUUAGUUA |  | 0.00108 ± 0.0044 | 0.00171 ± 0.0033 | 0.000718 ± 0.0086 | 0.286 ± 0.042
UCCUGGAUGAGCUUGCAUAGUAAUUAGAAA | 0.00118 ± 0.0053 | 0.00263 ± 0.0046 | 0.00162 ± 0.0032 | < 0.0001 | 
UCCUCCUACAGCUUGCAUAGUAAAAACAAA | 0.000957 ± 0.0068 | 0.000659 ± 0.014 | 0.00389 ± 0.0036 | 0.000439 ± 0.021 | 
UCCUGGAUGAGCUUGCAUAGAUUUUACAAA | 0.000617 ± 0.0088 | 0.000305 ± 0.009 | 0.000922 ± 0.0045 | 0.0001 ± 0.049 | 
UCCUGGAACAGCUAGCAUAGUAUUUAGAAA | 0.00121 ± 0.0059 | 0.00289 ± 0.0034 | 0.00262 ± 0.0023 | 0.000175 ± 0.032 | 
UCCUGGUACAGCUUGCAUAGUAUUAGUUA |  | 0.00252 ± 0.0033 | 0.00246 ± 0.0029 | 0.000787 ± 0.01 | 0.327 ± 0.053
UCCUCCUACAGCUUGCAUAGUAAAUAGUAA | 0.00134 ± 0.0044 | 0.00194 ± 0.0042 | 0.00375 ± 0.0025 | 0.000353 ± 0.023 | 
UCCUCCAUCAGCUUGCAUAGUAUUUUCAAA | 0.00141 ± 0.0035 | 0.00248 ± 0.0027 | 0.00384 ± 0.0024 | 0.00033 ± 0.016 | 
UCCUGCUACAGCUUGCAUAGAUAUUAGUAA | 0.000202 ± 0.017 | 0.000193 ± 0.02 | 0.00195 ± 0.0038 | 0.000364 ± 0.015 | 
UCCUGGAUGUCGUUGCAUAGUAUUAAGUUA | 0.00271 ± 0.0034 | 0.00128 ± 0.0061 | 0.00229 ± 0.0039 | 0.00123 ± 0.0075 | 
UCCUCCUACAGCUUGCAUAGUUAAUUCAAA | 0.00124 ± 0.0056 | 0.000256 ± 0.011 | 0.00233 ± 0.003 | 0.000301 ± 0.015 | 
UCCUGCAUGAGCUUGCAUAGUAUUUUCAAA | 0.000695 ± 0.0074 | 0.00169 ± 0.0035 | 0.000989 ± 0.0042 | 0.000497 ± 0.013 | 
UCCUGGAUGAGCUUGCAUAGAAAUUAGUUA | 0.00138 ± 0.0046 | 0.0014 ± 0.0029 | 0.000617 ± 0.006 | 0.000525 ± 0.015 | 
UCCUGGUACACGAUGCAUAGUAUUUAGUAA | 0.00194 ± 0.0044 | 0.00143 ± 0.0061 | 0.00214 ± 0.0033 | 0.000625 ± 0.013 | 

Reprinted at random: two records from the list
Sequence | pre-steady-state target cleavage rate [1, 4] | pre-steady-state target cleavage rate [2] | pre-steady-state target cleavage rate [3, 5] | pre-steady-state target cleavage rate [3, 6] | pre-steady-state target cleavage rate [1, 7]
UCCUCCUACAGCUUGCAUAGUAAAAACAAA | 0.000957 ± 0.0068 | 0.000659 ± 0.014 | 0.00389 ± 0.0036 | 0.000439 ± 0.021 | 
UCCUGGAUGUCGUUGCAUAGUAUUAAGUUA | 0.00271 ± 0.0034 | 0.00128 ± 0.0061 | 0.00229 ± 0.0039 | 0.00123 ± 0.0075 | 
